Laboratory results published in doi:10.1101/2020.12.28.424526 (bioRxiv, 2020).
No constants are given. Whether binding was seen depends on the method and setting. Binding seen in cells or lysates may run through a third protein. A yes stands for co-enrichment or nearness to the bait. Other partners may have been found.

T1: 5'-3' exoribonuclease-2 (XRN-2) (C. elegans (endogenous in worm lysate)) (UniProt Q9U299)
T1 sequence: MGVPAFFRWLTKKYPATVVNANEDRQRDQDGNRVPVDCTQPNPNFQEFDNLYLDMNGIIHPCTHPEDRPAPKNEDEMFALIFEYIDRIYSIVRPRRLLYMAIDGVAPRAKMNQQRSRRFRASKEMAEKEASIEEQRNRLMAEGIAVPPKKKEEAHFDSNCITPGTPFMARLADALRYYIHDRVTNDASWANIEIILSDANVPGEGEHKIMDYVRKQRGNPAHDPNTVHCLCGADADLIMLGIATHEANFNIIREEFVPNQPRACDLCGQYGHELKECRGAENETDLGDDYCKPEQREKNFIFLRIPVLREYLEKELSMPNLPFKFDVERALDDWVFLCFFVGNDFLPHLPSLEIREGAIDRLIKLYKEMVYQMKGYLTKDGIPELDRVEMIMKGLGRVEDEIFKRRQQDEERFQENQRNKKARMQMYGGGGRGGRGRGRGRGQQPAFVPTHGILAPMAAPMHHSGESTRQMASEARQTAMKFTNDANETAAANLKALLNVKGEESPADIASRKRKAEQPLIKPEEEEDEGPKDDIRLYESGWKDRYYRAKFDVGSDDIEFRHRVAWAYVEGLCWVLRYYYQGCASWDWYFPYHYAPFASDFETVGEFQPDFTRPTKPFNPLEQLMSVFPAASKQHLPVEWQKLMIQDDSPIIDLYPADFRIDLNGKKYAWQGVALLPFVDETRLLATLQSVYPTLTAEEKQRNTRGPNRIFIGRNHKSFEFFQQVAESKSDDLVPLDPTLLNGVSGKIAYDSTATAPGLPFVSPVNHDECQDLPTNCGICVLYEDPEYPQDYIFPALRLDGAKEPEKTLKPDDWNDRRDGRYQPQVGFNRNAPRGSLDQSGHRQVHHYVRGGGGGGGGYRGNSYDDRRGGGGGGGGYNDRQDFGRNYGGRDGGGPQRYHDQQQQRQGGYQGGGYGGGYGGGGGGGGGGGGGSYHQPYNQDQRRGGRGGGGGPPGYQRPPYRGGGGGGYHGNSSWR

B1: partner of XRN two-1 (PAXT-1) (natural protein, C. elegans (endogenous in worm lysate), UniProt Q21738 1-335, looked up)
chain: MGKLEDVEAEKKLWESDDAWELRKAFMLAHYDDYPKIQLQCLSQLFINVTLLGCEYSQTLMQKIRTMGAGIAANKDRTKTGSYVKASAAKKRQAVKTSDLEGASDESKKVKMEKSPSPVARESFDERLGKLKASLAMTPHHLTGEQMMKTATNSCLMKWHVNKINQKIEITIDRYVAFRHTFSQYCVDPRDCAINTLIESILSCDAAVHEESYEIRFDGVPVDECYAKSVTRRLAKIKSAVSNGAHTVKGLTTYLDAVNMSMIQNTQKLEGWSQQLDLVTADLLLSSRVLSSTECTKPAMATIANQMSEDVCQLILNDKINVINSMKSHSSLAFQ

molecular target: T1, 5'-3' exoribonuclease-2 (XRN-2) (C. elegans (endogenous in worm lysate)); assay: affinity purification with mass spectrometry

binding, binds:
NOL-58 (C. elegans (endogenous in worm lysate))
miRNasome-1.4 (B0024.11) (C. elegans (endogenous in worm lysate))
B1
